Measurements published in publication PMC4102591.
These are yes or no findings as the source states them, for the method shown. Binding seen in cells or lysates may run through a third protein. Some results given as binding are weak or reduced against the parent protein; the word gives no strength.

Amino acid sequences for entries named in this document (tags omitted).
UniProt O14894: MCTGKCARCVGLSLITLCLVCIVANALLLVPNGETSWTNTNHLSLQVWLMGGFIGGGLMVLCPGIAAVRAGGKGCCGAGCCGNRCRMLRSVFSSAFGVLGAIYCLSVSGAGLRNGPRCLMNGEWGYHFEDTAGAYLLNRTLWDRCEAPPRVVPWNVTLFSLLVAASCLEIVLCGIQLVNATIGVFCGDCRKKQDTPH
UniProt P08962: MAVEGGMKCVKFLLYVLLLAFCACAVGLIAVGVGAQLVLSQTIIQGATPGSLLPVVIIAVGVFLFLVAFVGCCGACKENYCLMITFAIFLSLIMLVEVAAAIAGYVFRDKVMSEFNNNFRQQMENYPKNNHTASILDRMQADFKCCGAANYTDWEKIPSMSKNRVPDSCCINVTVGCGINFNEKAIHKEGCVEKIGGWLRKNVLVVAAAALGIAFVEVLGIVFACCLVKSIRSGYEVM

Columns and labels:
[1] = biological target: Strep-TM4SF5 (transmembrane 4 L6 family member 5, Strep-tagged) (UniProt O14894); experiment: co-IP; lysates of Chang cells transfected with Strep-TM4SF5 or control Strep plasmid, precipitated by the Strep tag on beads, blotted for CD151, CD63 and the tag; lysis buffer 10 mM Tris pH 7.5, 150 mM NaCl, 1 mM CaCl2, 1 mM MgCl2, 1% Brij97
[2] = biological target: T1, CD151 (Tspan24), endogenous (human (endogenous in Chang, HCC827, Chang-TGFβ1)) (UniProt P48509); experiment: co-IP; extracts of HCC827 cells transfected with FLAG-TM4SF5 or FLAG-mock, immunoprecipitated with anti-CD151 antibody, blotted for FLAG and CD151; 1% Brij97 lysis buffer
T1 sequence: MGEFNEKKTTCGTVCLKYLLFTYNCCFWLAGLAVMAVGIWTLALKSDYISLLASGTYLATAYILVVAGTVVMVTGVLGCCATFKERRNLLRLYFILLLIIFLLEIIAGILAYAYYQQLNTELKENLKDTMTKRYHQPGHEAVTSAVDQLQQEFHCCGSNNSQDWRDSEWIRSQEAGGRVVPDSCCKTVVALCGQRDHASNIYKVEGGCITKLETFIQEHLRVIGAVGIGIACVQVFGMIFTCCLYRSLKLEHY

[3] = biological target: T1, CD151 (Tspan24), endogenous (human (endogenous in Chang, HCC827, Chang-TGFβ1)); experiment: co-IP; extracts of Chang-TGFβ1 cells (both proteins endogenous), immunoprecipitated with normal IgG or anti-CD151 antibody, blotted for CD151 and TM4SF5; 1% Brij97 lysis buffer

## CD63 (Tspan30), endogenous (from UniProt P08962 1-238)
[1]
  binding: no binding

## FLAG-TM4SF5 (transmembrane 4 L6 family member 5, FLAG-tagged) (from UniProt O14894 1-197)
[2]
  binding: binds

## Transmembrane 4 L6 family member 5 (TM4SF5), endogenous (from UniProt O14894 1-197)
[3]
  binding: binds

B1: CD151 (Tspan24), endogenous (protein, UniProt P48509 1-253)
chain: MGEFNEKKTTCGTVCLKYLLFTYNCCFWLAGLAVMAVGIWTLALKSDYISLLASGTYLATAYILVVAGTVVMVTGVLGCCATFKERRNLLRLYFILLLIIFLLEIIAGILAYAYYQQLNTELKENLKDTMTKRYHQPGHEAVTSAVDQLQQEFHCCGSNNSQDWRDSEWIRSQEAGGRVVPDSCCKTVVALCGQRDHASNIYKVEGGCITKLETFIQEHLRVIGAVGIGIACVQVFGMIFTCCLYRSLKLEHY
[1]
  binding: binds
